Reference: PubChem BioAssay AID1224828 (NIAID, 2016)
Shown is an unselected part of about 17,000 reagents tested. Of all reagents, 762 (4.5%) got an active call. 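Active calls include both raised and lowered p65 entry, mostly lowered; wells with fewer than 50 cells lack a z-score.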 Raw values vary from plate to plate and are shown uncorrected. A number with no mark means an inactive call.

Assay: 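Regulators linking TLR4 signalling to p65 nuclear translocation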 (primary screen)
Cell system: mouse RAW264.7 G9 macrophage reporter cells (GFP-p65, Tnf promoter-mCherry)
Reagents: siRNA pool against mouse genes, 100 nM
Time to read-out: 2 days siRNA transfection, then 40 min LPS before fixation
Treatment: LPS (Salmonella minnesota R595) at 10 ng/ml
Measurement: 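Microscopy ratio of nuclear to perinuclear-ring GFP-p65 signal, scaled to the plate median; gene score is the average of two replicate robust z-scores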
Reading the numbers: p65 translocation robust z-score: higher = more nuclear NF-kappaB p65 after LPS than the plate median; nuclear/cytoplasmic p65 ratio: higher = more nuclear NF-kappaB p65
Rule for the call: 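Called active when z exceeds 3.3 or falls under -1.56 (median of Tlr4 controls), giving activity score of at least 50; no calls for control wells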
Calls: active = hit (p65 shift raised or lowered); inactive = no clear change

{"Target gene":"Icos (GeneID 54167)","p65 translocation robust z-score":0.01,"nuclear/cytoplasmic p65 ratio, rep 1":1.41,"nuclear/cytoplasmic p65 ratio, rep 2":1.41,"low cell count flag":"enough cells to score"}
{"Target gene":"Ocstamp (GeneID 74614)","p65 translocation robust z-score":-0.78,"nuclear/cytoplasmic p65 ratio, rep 1":1.11,"nuclear/cytoplasmic p65 ratio, rep 2":1.17,"low cell count flag":"enough cells to score"}
{"Target gene":"Nsun6 (GeneID 74455)","nuclear/cytoplasmic p65 ratio, rep 1":1.23,"nuclear/cytoplasmic p65 ratio, rep 2":1.41,"low cell count flag":"fewer than 50 cells per well; well left out of scoring"}
{"Target gene":"Fstl5 (GeneID 213262)","p65 translocation robust z-score":2.83,"nuclear/cytoplasmic p65 ratio, rep 1":2.01,"nuclear/cytoplasmic p65 ratio, rep 2":1.85,"low cell count flag":"enough cells to score"}
{"Target gene":"Il17a (GeneID 16171)","p65 translocation robust z-score":-1.34,"nuclear/cytoplasmic p65 ratio, rep 1":1.22,"nuclear/cytoplasmic p65 ratio, rep 2":1.23,"low cell count flag":"enough cells to score"}
{"Target gene":"H4c9 (GeneID 319158)","p65 translocation robust z-score":1.16,"nuclear/cytoplasmic p65 ratio, rep 1":1.7,"nuclear/cytoplasmic p65 ratio, rep 2":1.6,"low cell count flag":"enough cells to score"}
{"Target gene":"C8b (GeneID 110382)","p65 translocation robust z-score":-1.03,"nuclear/cytoplasmic p65 ratio, rep 1":1.47,"nuclear/cytoplasmic p65 ratio, rep 2":1.45,"low cell count flag":"enough cells to score"}
{"Target gene":"Rph3a (GeneID 19894)","p65 translocation robust z-score":0.89,"nuclear/cytoplasmic p65 ratio, rep 1":1.56,"nuclear/cytoplasmic p65 ratio, rep 2":1.3,"low cell count flag":"enough cells to score"}
{"Target gene":"Nudt21 (GeneID 68219)","p65 translocation robust z-score":0.27,"nuclear/cytoplasmic p65 ratio, rep 1":1.66,"nuclear/cytoplasmic p65 ratio, rep 2":1.78,"low cell count flag":"enough cells to score"}
{"Target gene":"Med6 (GeneID 69792)","p65 translocation robust z-score":-1.36,"nuclear/cytoplasmic p65 ratio, rep 1":1.2,"nuclear/cytoplasmic p65 ratio, rep 2":1.22,"low cell count flag":"enough cells to score"}
{"Target gene":"Bscl2 (GeneID 14705)","p65 translocation robust z-score":0.13,"nuclear/cytoplasmic p65 ratio, rep 1":1.65,"nuclear/cytoplasmic p65 ratio, rep 2":1.61,"low cell count flag":"enough cells to score"}
{"Target gene":"Or2ag12 (GeneID 258445)","nuclear/cytoplasmic p65 ratio, rep 1":1.29,"nuclear/cytoplasmic p65 ratio, rep 2":1.11,"low cell count flag":"fewer than 50 cells per well; well left out of scoring"}
{"Target gene":"Pogk (GeneID 71592)","p65 translocation robust z-score":-0.88,"nuclear/cytoplasmic p65 ratio, rep 1":1.22,"nuclear/cytoplasmic p65 ratio, rep 2":1.15,"low cell count flag":"enough cells to score"}
{"Target gene":"Grip1 (GeneID 74053)","p65 translocation robust z-score":2,"nuclear/cytoplasmic p65 ratio, rep 1":2.09,"nuclear/cytoplasmic p65 ratio, rep 2":1.7,"low cell count flag":"enough cells to score"}

2 consecutive records already listed:
{"Target gene":"Ocstamp (GeneID 74614)","p65 translocation robust z-score":-0.78,"nuclear/cytoplasmic p65 ratio, rep 1":1.11,"nuclear/cytoplasmic p65 ratio, rep 2":1.17,"low cell count flag":"enough cells to score"}
{"Target gene":"Nsun6 (GeneID 74455)","nuclear/cytoplasmic p65 ratio, rep 1":1.23,"nuclear/cytoplasmic p65 ratio, rep 2":1.41,"low cell count flag":"fewer than 50 cells per well; well left out of scoring"}
